# The supplement of paper PMC8728848
# This is one part of the list.
# Tests used:
# Assay in all cases: glycan array binding signal (z-score within array); higher = stronger binding
# Conditions in all cases: glycan notation: IUPAC condensed, linker removed
# Gal6S(b1-4)Glc6S = molecular target: Gal6S(b1-4)Glc6S
# Method in brief: (§1)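 Columns mapping to the same glycan were averaged after glycan names were converted to IUPAC-condensed notation. The data come from 3228 arrays in the Consortium for Functional Glycomics database, limited to those with an available protein sequence. Binding is reported as a within-array Z-score averaged across arrays of one protein sequence and across linkers.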
# Gal6S(b1-4)GlcNAc = molecular target: Gal6S(b1-4)GlcNAc
# Method in brief: as §1
# GalNAc(a1-3)Gal = molecular target: GalNAc(a1-3)Gal
# Method in brief: as §1
# GalNAc(a1-3)GalNAc = molecular target: GalNAc(a1-3)GalNAc
# Method in brief: as §1
# [1] = molecular target: GalNAc(b1-3)Gal(a1-4)Gal(b1-4)GlcNAc
# Method in brief: as §1
# GalNAc(b1-3)GalNAc = molecular target: GalNAc(b1-3)GalNAc
# Method in brief: as §1
# GalNAc(b1-4)GlcNAc = molecular target: GalNAc(b1-4)GlcNAc
# Method in brief: as §1
# Glc(a1-4)Glc = molecular target: Glc(a1-4)Glc
# Method in brief: as §1
# Glc(a1-6)Glc(a1-6)Glc = molecular target: Glc(a1-6)Glc(a1-6)Glc
# Method in brief: as §1
# Glc(b1-4)Glc = molecular target: Glc(b1-4)Glc
# Method in brief: as §1
# Glc(b1-6)Glc = molecular target: Glc(b1-6)Glc
# Method in brief: as §1
# GlcA(b1-3)Gal = molecular target: GlcA(b1-3)Gal
# Method in brief: as §1
# GlcA(b1-6)Gal = molecular target: GlcA(b1-6)Gal
# Method in brief: as §1
# [2] = molecular target: GlcNAc(a1-3)Gal(b1-4)GlcNAc
# Method in brief: as §1
# [3] = molecular target: GlcNAc(a1-6)Gal(b1-4)GlcNAc
# Method in brief: as §1
# [4] = molecular target: GlcNAc(b1-2)Gal(b1-3)GalNAc
# Method in brief: as §1
# [5] = molecular target: GlcNAc(b1-2)Man(a1-3)[GlcNAc(b1-2)Man(a1-6)]Man(b1-4)GlcNAc(b1-4)GlcNAc
# Method in brief: as §1
# GlcNAc(b1-3)Gal = molecular target: GlcNAc(b1-3)Gal
# Method in brief: as §1
# [6] = molecular target: GlcNAc(b1-3)Gal(b1-3)GalNAc
# Method in brief: as §1
# GlcNAc(b1-3)Gal(b1-4)Glc = molecular target: GlcNAc(b1-3)Gal(b1-4)Glc
# Method in brief: as §1
# [7] = molecular target: GlcNAc(b1-3)Gal(b1-4)GlcNAc
# Method in brief: as §1
# [8] = molecular target: GlcNAc(b1-3)Gal(b1-4)GlcNAc(b1-3)Gal(b1-4)GlcNAc
# Method in brief: as §1
# GlcNAc(b1-3)GalNAc = molecular target: GlcNAc(b1-3)GalNAc
# Method in brief: as §1
# [9] = molecular target: GlcNAc(b1-3)[GlcNAc(b1-4)][GlcNAc(b1-6)]GlcNAc
# Method in brief: as §1
# [10] = molecular target: GlcNAc(b1-3)[GlcNAc(b1-6)]Gal(b1-4)GlcNAc
# Method in brief: as §1
# [11] = molecular target: GlcNAc(b1-3)[GlcNAc(b1-6)]GalNAc
# Method in brief: as §1
# [12] = molecular target: GlcNAc(b1-4)Gal(b1-4)GlcNAc
# Method in brief: as §1
# [13] = molecular target: GlcNAc(b1-4)GlcNAc(b1-4)GlcNAc
# Method in brief: as §1
# [14] = molecular target: GlcNAc(b1-4)GlcNAc(b1-4)GlcNAc(b1-4)GlcNAc(b1-4)GlcNAc
# Method in brief: as §1
# [15] = molecular target: GlcNAc(b1-4)GlcNAc(b1-4)GlcNAc(b1-4)GlcNAc(b1-4)GlcNAc(b1-4)GlcNAc
# Method in brief: as §1
# [16] = molecular target: GlcNAc(b1-4)[GlcNAc(b1-6)]GalNAc
# Method in brief: as §1
# [17] = molecular target: GlcNAc(b1-6)Gal(b1-4)GlcNAc
# Method in brief: as §1
# GlcNAc(b1-6)GalNAc = molecular target: GlcNAc(b1-6)GalNAc
# Method in brief: as §1
# Kdn(a2-3)Gal(b1-3)GlcNAc = molecular target: Kdn(a2-3)Gal(b1-3)GlcNAc
# Method in brief: as §1
# Kdn(a2-3)Gal(b1-4)GlcNAc = molecular target: Kdn(a2-3)Gal(b1-4)GlcNAc
# Method in brief: as §1
# [18] = molecular target: Man(a1-2)Man(a1-2)Man(a1-3)Man
# Method in brief: as §1
# [19] = molecular target: Man(a1-2)Man(a1-2)Man(a1-6)[Man(a1-3)]Man
# Method in brief: as §1
# Man(a1-2)Man(a1-3)Man = molecular target: Man(a1-2)Man(a1-3)Man
# Method in brief: as §1
# [20] = molecular target: Man(a1-2)Man(a1-3)[Man(a1-2)Man(a1-6)]Man
# Method in brief: as §1
# [21] = molecular target: Man(a1-2)Man(a1-3)[Man(a1-2)Man(a1-6)]Man(a1-6)[Man(a1-2)Man(a1-2)Man(a1-3)]Man(b1-4)GlcNAc(b1-4)GlcNAc
# Method in brief: as §1
# [22] = molecular target: Man(a1-2)Man(a1-3)[Man(a1-2)Man(a1-6)]Man(a1-6)[Man(a1-3)[Man(a1-6)]Man(a1-6)]Man(b1-4)GlcNAc(b1-4)GlcNAc
# Method in brief: as §1
# [23] = molecular target: Man(a1-2)Man(a1-3)[Man(a1-6)]Man(a1-6)[Man(a1-2)Man(a1-3)]Man(b1-4)GlcNAc(b1-4)GlcNAc
# Method in brief: as §1
# [24] = molecular target: Man(a1-2)Man(a1-6)[Man(a1-3)]Man(a1-6)[Man(a1-2)Man(a1-2)Man(a1-3)]Man(b1-4)GlcNAc(b1-4)GlcNAc
# Method in brief: as §1
# Man(a1-3)[Man(a1-6)]Man = molecular target: Man(a1-3)[Man(a1-6)]Man
# Method in brief: as §1
# [25] = molecular target: Man(a1-3)[Man(a1-6)]Man(a1-6)[Man(a1-3)]Man(b1-4)GlcNAc(b1-4)GlcNAc
# Method in brief: as §1
binder,measurement,setting,value
"M6PR (Bos taurus), P11456 (protein) MMSPLHSSWRTGLLLLLLFSVAVRESWQTEEKTCDLVGEKGKESEKELALLKRLTPLFNKSFESTVGQSPDMYSYVFRVCREAGNHSSGAGLVQINKSNGKETVVGRFNETQIFNGSNWIMLIYKGGDEYDNHCGREQRRAVVMISCNRHTLADNFN",glycan array binding signal (z-score),Gal6S(b1-4)Glc6S,-0.33
same,glycan array binding signal (z-score),Gal6S(b1-4)GlcNAc,-0.069
same,glycan array binding signal (z-score),GalNAc(a1-3)Gal,1.42
same,glycan array binding signal (z-score),GalNAc(a1-3)GalNAc,0.045
same,glycan array binding signal (z-score),[1],0.285
same,glycan array binding signal (z-score),GalNAc(b1-3)GalNAc,-0.259
same,glycan array binding signal (z-score),GalNAc(b1-4)GlcNAc,0.215
same,glycan array binding signal (z-score),Glc(a1-4)Glc,-0.41
same,glycan array binding signal (z-score),Glc(a1-6)Glc(a1-6)Glc,-0.78
same,glycan array binding signal (z-score),Glc(b1-4)Glc,-0.664
same,glycan array binding signal (z-score),Glc(b1-6)Glc,-0.565
same,glycan array binding signal (z-score),GlcA(b1-3)Gal,0.773
same,glycan array binding signal (z-score),GlcA(b1-6)Gal,-0.256
same,glycan array binding signal (z-score),[2],-0.721
same,glycan array binding signal (z-score),[3],-0.724
same,glycan array binding signal (z-score),[4],0.857
same,glycan array binding signal (z-score),[5],0.08
same,glycan array binding signal (z-score),GlcNAc(b1-3)Gal,0.16
same,glycan array binding signal (z-score),[6],-0.067
same,glycan array binding signal (z-score),GlcNAc(b1-3)Gal(b1-4)Glc,1.12
same,glycan array binding signal (z-score),[7],-0.748
same,glycan array binding signal (z-score),[8],-0.75
same,glycan array binding signal (z-score),GlcNAc(b1-3)GalNAc,-0.669
same,glycan array binding signal (z-score),[9],0.293
same,glycan array binding signal (z-score),[10],0.302
same,glycan array binding signal (z-score),[11],0.101
same,glycan array binding signal (z-score),[12],-0.509
same,glycan array binding signal (z-score),[13],-0.632
same,glycan array binding signal (z-score),[14],-0.585
same,glycan array binding signal (z-score),[15],-0.509
same,glycan array binding signal (z-score),[16],0.804
same,glycan array binding signal (z-score),[17],-0.174
same,glycan array binding signal (z-score),GlcNAc(b1-6)GalNAc,-0.476
same,glycan array binding signal (z-score),Kdn(a2-3)Gal(b1-3)GlcNAc,0.277
same,glycan array binding signal (z-score),Kdn(a2-3)Gal(b1-4)GlcNAc,-0.218
same,glycan array binding signal (z-score),[18],0.227
same,glycan array binding signal (z-score),[19],-0.395
same,glycan array binding signal (z-score),Man(a1-2)Man(a1-3)Man,-0.287
same,glycan array binding signal (z-score),[20],-0.534
same,glycan array binding signal (z-score),[21],0.811
same,glycan array binding signal (z-score),[22],3.23
same,glycan array binding signal (z-score),[23],-0.541
same,glycan array binding signal (z-score),[24],-0.597
same,glycan array binding signal (z-score),Man(a1-3)[Man(a1-6)]Man,0.483
same,glycan array binding signal (z-score),[25],-0.26

# Reformatted as tab-separated lines: entries from further up
binder	measurement	setting	value
M6PR (Bos taurus), P11456 (protein) MMSPLHSSWRTGLLLLLLFSVAVRESWQTEEKTCDLVGEKGKESEKELALLKRLTPLFNKSFESTVGQSPDMYSYVFRVCREAGNHSSGAGLVQINKSNGKETVVGRFNETQIFNGSNWIMLIYKGGDEYDNHCGREQRRAVVMISCNRHTLADNFN	glycan array binding signal (z-score)	GalNAc(a1-3)GalNAc	0.045
same	glycan array binding signal (z-score)	GalNAc(b1-3)GalNAc	-0.259
same	glycan array binding signal (z-score)	Glc(b1-4)Glc	-0.664
same	glycan array binding signal (z-score)	[3]	-0.724
same	glycan array binding signal (z-score)	GlcNAc(b1-3)Gal(b1-4)Glc	1.12
same	glycan array binding signal (z-score)	[14]	-0.585
same	glycan array binding signal (z-score)	[16]	0.804
same	glycan array binding signal (z-score)	[19]	-0.395
